# Measurements: the supplement of paper PMC6658780
# Structures can show the parent of a compound that is named as a salt. ± gives the standard deviation of the averaged measurements. The list shows a part of the results. Repeats in this data set agree poorly, so a single value says little.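 The A. baumannii clinical isolates were selected for resistance to the partner antibiotic; the screen seeks drugs that restore its effect. Background from coloured compounds is removed by subtracting the start-of-incubation reading.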
# Test system: Acinetobacter baumannii WP-487
# Test: percent growth inhibition of drug alone vs DMSO control; higher = more growth inhibition
# Conditions: antibiotic (0.125x MIC): none (0.1% DMSO); 7 µM
# Description: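 Prestwick drugs tested at 20 uM and 7 uM with an antibiotic at 0.125x MIC (16 mg/L when MIC >128 mg/L) in cation-adjusted Mueller-Hinton broth, 384-well plates, duplicate runs on different days. Percent growth inhibition was computed from OD600 (24 h minus 0 h) relative to DMSO-only wells. Drug + 0.1% DMSO (no antibiotic) wells are also given. Only hits (max corrected inhibition > mean + 3SD) are listed. A. baumannii: NCTC-13301 was used for MEM/CIP/GEN/TGC and WP-487 for colistin. Duplicates with colistin are strongly discordant (run 2 near 100% for most drugs).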
row,SMILES,percent growth inhibition of drug alone
1,CCOC(=O)OC(C)OC(=O)[C@@H]1N2C(=O)[C@@H](NC(=O)[C@H](N)c3ccccc3)[C@H]2SC1(C)C (stereo not given in full) [Bacampicillin hydrochloride],5.58 ± 4.4%
2,CCc1nn(CCCN2CCN(c3cccc(Cl)c3)CC2)c(=O)n1CCOc1ccccc1 [Nefazodone hydrochloride],7.46 ± 5.1%
3,CN1CCC[C@@H]1CCO[C@](C)(c1ccccc1)c1ccc(Cl)cc1 [Clemastine fumarate],0.518 ± 5.2%
4,Clc1ccc(COC(Cn2ccnc2)c2ccc(Cl)cc2Cl)c(Cl)c1 (stereo not given) [Miconazole],-4.34 ± 4.1%
5,CCCCc1oc2ccccc2c1C(=O)c1cc(I)c(OCCN(CC)CC)c(I)c1 [Amiodarone hydrochloride],-4.51 ± 8.4%
6,COc1ccccc1N1CCN(CC(O)COc2cccc3ccccc23)CC1 (stereo not given) [Naftopidil dihydrochloride],-0.615 ± 8.1%
7,COc1cc(NS(=O)(=O)c2ccc(N)cc2)ncn1 [Sulfamonomethoxine],55.7 ± 57%
8,COc1ccc(C(=O)CC(=O)c2ccc(C(C)(C)C)cc2)cc1 [Avobenzone],27 ± 23%
9,CN(C)CCOC1=Cc2ccccc2Sc2ccc(Cl)cc21 [Zotepine],0.656 ± 10%
10,Nc1ccc(S(=O)(=O)Nc2ccnn2-c2ccccc2)cc1 [Sulfaphenazole],2.46 ± 3.5%
11,Clc1ccc(C(Cn2ccnc2)OCc2ccsc2Cl)c(Cl)c1 (stereo not given) [Tioconazole],0.499 ± 2.2%
12,COC(=O)C1=C(C)NC(C)=C(C(=O)OCCN(C)Cc2ccccc2)C1c1cccc([N+](=O)[O-])c1 (stereo not given) [Nicardipine hydrochloride],3.82 ± 4.9%
13,O=C1CCc2ccc(OCCCCN3CCN(c4cccc(Cl)c4Cl)CC3)cc2N1 [Aripiprazole],1.17 ± 4.4%
14,Clc1ccc(C(Cn2ccnc2)OCc2csc3c(Cl)cccc23)c(Cl)c1 (stereo not given) [Sertaconazole nitrate],7.14 ± 10%
15,CCOC1O[C@H]([C@@H](COCc2ccccc2)OCc2ccccc2)[C@H](OCc2ccccc2)[C@H]1O (stereo not given in full) [Tribenoside],-4.06 ± 3.1%
16,Clc1ccc(CCC(Cn2ccnc2)Sc2c(Cl)cccc2Cl)cc1 (stereo not given) [Butoconazole nitrate],-19.8 ± 25%
17,CC[C@H]1OC(=O)[C@H](C)[C@@H](O[C@H]2C[C@@](C)(OC)[C@@H](O)[C@H](C)O2)[C@H](C)[C@@H](O[C@@H]2O[C@H](C)C[C@H](N(C)C)[C@H]2O)[C@](C)(O)C[C@@H](C)/C(=N\OCOCCOC)[C@H](C)[C@@H](O)[C@]1(C)O [Roxithromycin],42.5 ± 34%
18,OCCN1CCN(CCCN2c3ccccc3Sc3ccc(Cl)cc32)CC1 [Perphenazine],4.58 ± 1%
19,Cc1cc2cc3c(C)cc(=O)oc3c(C)c2o1 [Trioxsalen],3.89 ± 1.4%
20,O=C1OCCN1/N=C/c1ccc([N+](=O)[O-])o1 [Furazolidone],0.239 ± 8.4%

# Same assay, conditions: antibiotic (0.125x MIC): none (0.1% DMSO); 20 µM
row,SMILES,percent growth inhibition of drug alone
1,CCOC(=O)OC(C)OC(=O)[C@@H]1N2C(=O)[C@@H](NC(=O)[C@H](N)c3ccccc3)[C@H]2SC1(C)C (stereo not given in full) [Bacampicillin hydrochloride],3.36 ± 2.6%
2,CCc1nn(CCCN2CCN(c3cccc(Cl)c3)CC2)c(=O)n1CCOc1ccccc1 [Nefazodone hydrochloride],13.1 ± 4.4%
3,CN1CCC[C@@H]1CCO[C@](C)(c1ccccc1)c1ccc(Cl)cc1 [Clemastine fumarate],-0.575 ± 0.93%
4,Clc1ccc(COC(Cn2ccnc2)c2ccc(Cl)cc2Cl)c(Cl)c1 (stereo not given) [Miconazole],-4.33 ± 8.4%
5,CCCCc1oc2ccccc2c1C(=O)c1cc(I)c(OCCN(CC)CC)c(I)c1 [Amiodarone hydrochloride],3.55 ± 3.6%
6,COc1ccccc1N1CCN(CC(O)COc2cccc3ccccc23)CC1 (stereo not given) [Naftopidil dihydrochloride],0.734 ± 5.1%
7,COc1cc(NS(=O)(=O)c2ccc(N)cc2)ncn1 [Sulfamonomethoxine],95.6 ± 1.4%
8,COc1ccc(C(=O)CC(=O)c2ccc(C(C)(C)C)cc2)cc1 [Avobenzone],26.9 ± 28%
9,CN(C)CCOC1=Cc2ccccc2Sc2ccc(Cl)cc21 [Zotepine],0.833 ± 2.1%
10,Nc1ccc(S(=O)(=O)Nc2ccnn2-c2ccccc2)cc1 [Sulfaphenazole],52.2 ± 59%
11,Clc1ccc(C(Cn2ccnc2)OCc2ccsc2Cl)c(Cl)c1 (stereo not given) [Tioconazole],2.76 ± 10%
12,COC(=O)C1=C(C)NC(C)=C(C(=O)OCCN(C)Cc2ccccc2)C1c1cccc([N+](=O)[O-])c1 (stereo not given) [Nicardipine hydrochloride],-0.364 ± 1.8%
13,O=C1CCc2ccc(OCCCCN3CCN(c4cccc(Cl)c4Cl)CC3)cc2N1 [Aripiprazole],4.13 ± 2.4%
14,Clc1ccc(C(Cn2ccnc2)OCc2csc3c(Cl)cccc23)c(Cl)c1 (stereo not given) [Sertaconazole nitrate],15.8 ± 21%
15,CCOC1O[C@H]([C@@H](COCc2ccccc2)OCc2ccccc2)[C@H](OCc2ccccc2)[C@H]1O (stereo not given in full) [Tribenoside],1.03 ± 0.34%
16,Clc1ccc(CCC(Cn2ccnc2)Sc2c(Cl)cccc2Cl)cc1 (stereo not given) [Butoconazole nitrate],-0.464 ± 6.8%
17,CC[C@H]1OC(=O)[C@H](C)[C@@H](O[C@H]2C[C@@](C)(OC)[C@@H](O)[C@H](C)O2)[C@H](C)[C@@H](O[C@@H]2O[C@H](C)C[C@H](N(C)C)[C@H]2O)[C@](C)(O)C[C@@H](C)/C(=N\OCOCCOC)[C@H](C)[C@@H](O)[C@]1(C)O [Roxithromycin],61.5 ± 53%
18,OCCN1CCN(CCCN2c3ccccc3Sc3ccc(Cl)cc32)CC1 [Perphenazine],1.85 ± 2.1%
19,Cc1cc2cc3c(C)cc(=O)oc3c(C)c2o1 [Trioxsalen],2.23 ± 3.8%
20,O=C1OCCN1/N=C/c1ccc([N+](=O)[O-])o1 [Furazolidone],7.436 ± 0.013%
